The other results are listed elsewhere or left out. The main result of the screen is listed elsewhere. These columns were measured beside it and carry no call. The list favours compounds with an active or inconclusive main result. Potencies come from curve fits of mixed quality, noted in brackets.
Assay: qHTS Assay for Lipid Storage Modulators in Drosophila S3 Cells;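 for cell number change: cells counted by Cell Tracker Red CMTPX staining in the red channel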
Details: BODIPY lipid droplet fluorescence, 18-24 h; for cell number change: measured here: cell count max response, cells fed with added oleic acid
Summary of the method: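 Drosophila S3 cells got compounds at several concentrations plus oleic acid (400 uM solution). Laser-scanning cytometry with 488 nm excitation read lipid droplets at 500-530 nm and cells at 575-640 nm. Percent activity was relative to 20 uM Triacsin C.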

[1] = measured here: cell number channel AC50, cells fed with added oleic acid
[2] = measured here: lipid fluorescence (Fed channel) AC50, cells fed with added oleic acid

Structure (SMILES) | cell number change [%] | AC50 [1] | AC50 [2]
COCCn1c(=O)[nH]c2cc(C(=O)N3CCN(c4ccccc4OC)CC3)ccc2c1=O | -30.6 | 1.64 µM [falling, full curve, poor fit] | 9.2 µM [falling, partial curve, poor fit]
CN(CC(=O)Nc1ccccc1Cl)C(=O)COC(=O)c1cc(S(=O)(=O)N(C)C)ccc1N1CCCC1 | 75 | 0.517 µM [rising, full curve] | –
CN1CCS/C1=C/C=C1/SC(=S)N(Cc2ccccc2)C1=O | -17 | – | 29.1 µM [falling, partial curve, poor fit]
O=c1[nH]c2ccc(S(=O)(=O)NCc3ccccc3)cc2[nH]1 | 50.4 | 13 µM [rising, single point] | 18.4 µM [rising, partial curve]
Cc1ccc(NC(=O)CCCn2nc(C)c3c(C)n(-c4ccccc4)nc3c2=O)c(Cl)c1 | 18.7 | – | –
CC(C)Cn1cnc2sc3c(c2c1=N)CCCC3 | – | 6.51 µM [falling, single point] | –
COc1ccc(C(=O)NNC(=O)COC(=O)c2sccc2C)cc1 | -3.2 | – | 0.164 µM [rising, full curve, poor fit]
Cc1ccc(OCCNC(=O)c2cccc(C)c2)cc1 | 8.11 | – | –
CNC(C)C(=O)NC(C(=O)N1CCCC1C(=O)NC1CCCc2ccccc21)C(C)C (stereo unspecified) | -31.2 | 13 µM [falling, partial curve] | –
CCCCNS(=O)(=O)c1ccc2nc(SCC(=O)c3ccc(C#N)cc3)[nH]c2c1 | -25.8 | – | 2.31 µM [falling, full curve]
CN(C)c1ccc(CNCCC(Cc2ccccc2)c2ccco2)cc1 (stereo unspecified) | -72.7 | 18.4 µM [falling, single point] | 20.6 µM [falling, single point]
C[N+]1(CC(O)COCC2COc3ccccc3O2)CCOCC1 (stereo unspecified) | -45.5 | 11.6 µM [falling, partial curve, poor fit] | –
CCCn1c(SC(C)C(=O)N2CCOCC2)nc2ccc(Br)cc2c1=O (stereo unspecified) | 8.8 | – | 1.64 µM [rising, full curve]
CCN(CC)CCN(C(=O)CCOc1ccccc1)c1nc2ccc(F)cc2s1 | -44.7 | 25.9 µM [falling, single point] | –
O=c1c2ccccc2cnn1-c1nc2ccccc2[nH]1 | -13.4 | 6.51 µM [falling, single point] | –
NCC12CC3CC(C1)CC(c1ccc(Cl)cc1)(C3)C2 | -36 | 18.4 µM [falling, single point] | 29.1 µM [falling, single point]
COc1ccc(CN(C)C(=O)c2cccc(C(=O)N(C)Cc3ccc(OC)cc3)c2)cc1 | – | – | 0.58 µM [rising, single point]
COc1ccc(CNC(=O)CN2CCC(NC(=O)c3ccccc3C)CC2)cc1 | 19.2 | – | 29.1 µM [rising, single point]
Cc1cccc(C#N)c1NC1=CC(=O)CC(C)(C)C1 | 13.5 | – | 2.91 µM [rising, partial curve, poor fit]
CCOc1ccc(CO[C@@H]2O[C@H](CO)[C@@H](O)[C@H](O)[C@H]2NC(C)=O)cc1OC | 28.4 | – | –
O=C(Nc1ccccc1)C1CCCN(C(=O)c2ccc(Cl)cc2)C1 (stereo unspecified) | 27.7 | – | 0.326 µM [rising, full curve, poor fit]

Structure (SMILES) | cell number change [%] | AC50 [1] | AC50 [2]
CCOc1ccc(NC(=O)CSc2nc3ccccc3c(=O)n2Cc2cccs2)cc1 | 22.1 | – | 0.0517 µM [rising, full curve, poor fit]
CN(CC(=O)Nc1ccc(Cl)cc1)CC(=O)Nc1cccc(Br)c1 | -34.1 | 0.206 µM [falling, full curve, poor fit] | –
CC(=O)N1CCN(CC(=O)Nc2ccc([N+](=O)[O-])cc2Br)CC1 | 28.3 | – | –
Cc1ccc(-c2cc(C(=O)OCn3nnc4ccccc4c3=O)c3ccccc3n2)cc1 | 3.29 | – | 1.16 µM [rising, partial curve]
O=C(NCCCN1CCOCC1)C(Sc1ccccc1)c1ccccc1 (stereo unspecified) | -8.92 | – | 2.31 µM [falling, full curve]
Cc1cc([N+](=O)[O-])nn1CCCC(=O)Nc1ccc(Cl)cc1Cl | 5.55 | – | –
CC1CCC(NS(=O)(=O)c2ccc3c(c2)n(C)c(=O)c(=O)n3C)CC1 (stereo unspecified) | -16 | – | –
Cc1cnc(C(=O)OCC(=O)Nc2ccc(C)c(S(=O)(=O)N3CCCCCC3)c2)cn1 | 23.9 | – | 6.51 µM [falling, single point]
NC(=O)c1c(-c2ccc(Cl)cc2Cl)csc1NC(=O)Cc1ccccc1 | -19.3 | – | 29.1 µM [falling, single point]
CC(=O)Nc1nc2cc3c(cc2s1)OCO3 | -30.9 | – | 29.1 µM [rising, single point]
COc1ccc(C(=O)NC2CC2)cc1OC1CCN(Cc2ccc(NC(C)=O)cc2)CC1 | 9.72 | – | –
O=S(=O)(Nc1ccccc1N1CCCCC1)c1ccc(Cl)s1 | -1.01 | – | –
CCCCN(CCCC)C(=O)c1c[nH]c2ccc(S(=O)(=O)Nc3cccc(Cl)c3C)cc2c1=O | 40.2 | 16.4 µM [rising, single point] | –
O=C(CNC(=S)NC(=O)C1CCCCC1)c1ccccc1 | 93.9 | 3.26 µM [rising, full curve] | 23.1 µM [rising, partial curve]
Cc1ccc(C(=O)Nc2cnc3ccccn3c2=O)cc1 | 6.86 | – | 9.2 µM [rising, partial curve]
Cc1cc(/C=N/NC(=O)c2cccc([N+](=O)[O-])c2)c(C)n1-c1ccc(Cl)cc1Cl | 8.51 | – | –
CCOC(=O)C1=C(N)Oc2cc(O)ccc2C1c1cccc([N+](=O)[O-])c1 (stereo unspecified) | -28.4 | – | 23.1 µM [falling, single point]
COc1cc(OC)c(C(=O)Nc2cc(Cl)ccc2-n2cncn2)cc1OC | 20.8 | – | –
C=CCNC(=O)c1sccc1Oc1ccc(F)cc1[N+](=O)[O-] | 16.8 | 3.26 µM [rising, single point] | –
CN(CC(=O)NCCc1ccccc1)S(=O)(=O)c1ccccc1 | 23.4 | – | –
CCOC(=O)Cn1nnc(-c2ccc(S(C)(=O)=O)cc2)n1 | -3.88 | – | 25.9 µM [falling, single point]

Structure (SMILES) | cell number change [%] | AC50 [1] | AC50 [2]
O=C(c1ccc(Cl)cc1)c1nnc(-c2ccncc2)o1 | -20.8 | – | –
Cn1cc(SCC(N)=O)c2ccccc21 | -13.7 | – | 14.6 µM [falling, partial curve]
O=C(O)c1ccc(OCCN2CCCC2=O)cc1 | 9.67 | – | 0.58 µM [rising, single point]
O=C(NC1CC1)C1CCN(C2CCN(C(=O)CCOc3ccccc3)CC2)CC1 | -1.55 | – | 0.206 µM [falling, full curve, poor fit]
Cc1c(/C=C(\CC(=O)O)c2nc3ccccc3s2)cc(C#N)n1C | -19 | – | 25.9 µM [falling, single point]
Cc1cc(=O)c(C(=O)O)cn1-c1ccc(C(C)C)cc1 | -38.4 | – | –
O=C(Cc1cccc2ccccc12)NCCC1=CCCCC1 | 45.1 | 7.31 µM [rising, partial curve] | 4.61 µM [falling, partial curve, poor fit]
Cc1oc2c(CN3CCC(C)CC3)c(O)ccc2c(=O)c1-c1ccccc1 | 31.9 | – | –
Cc1ccc(OCc2cc(C(=O)N3CCN(CC(=O)NC(C)C)CC3)no2)cn1 | – | 0.651 µM [falling, partial curve] | 6.51 µM [falling, single point]
O=[N+]([O-])c1ccc(O)c(-c2cc(C(F)(F)F)nc(-c3ccccc3)n2)c1 | -37.5 | 18.4 µM [falling, partial curve, poor fit] | –
CCNc1nc(NC(C)C)nc(OCCNS(=O)(=O)c2cc(C)ccc2C)n1 | -7.45 | – | 7.31 µM [rising, partial curve, poor fit]
O=C(Nc1ccc(OC(F)(F)F)cc1)N1CCN(c2ccnc3cc(Cl)ccc23)CC1 | 14.9 | 0.461 µM [rising, partial curve] | 0.259 µM [rising, full curve]
CCOc1ccc(NC2c3ccccc3C(=O)N2Cc2ccc3c(c2)OCO3)cc1 (stereo unspecified) | 17.1 | – | –
CCc1ccccc1NC(=O)CCNC(=O)Cn1ccc2ccccc2c1=O | -1.9 | – | –
CN(c1ccccc1)S(=O)(=O)c1cccc(NC(=O)CSc2nncn2C)c1 | 16.6 | – | 3.66 µM [rising, partial curve, poor fit]
Cc1ccc(/C(N)=N/OC(=O)c2ccc(C)cc2Cl)cc1 | 13.5 | – | 18.4 µM [rising, single point]
Fc1ccc(-c2nc(-c3cccs3)[nH]c2-c2ccc(F)cc2)cc1 | 26.9 | 0.326 µM [rising, full curve, poor fit] | 1.16 µM [rising, partial curve]
O=C(NCCCO)C(=O)NCC(c1ccc2c(c1)OCO2)N1CCN(c2ccc(F)cc2)CC1 (stereo unspecified) | 7.65 | – | –
CN(Cc1cnccn1)C(=O)CC1C(=O)NCCN1Cc1ccc(F)cc1Cl (stereo unspecified) | 17.8 | – | 29.1 µM [rising, single point]
Cc1ccc(NS(=O)(=O)c2csc(C(N)=O)c2)cc1C | -28.9 | 0.92 µM [falling, full curve, poor fit] | 6.51 µM [rising, partial curve, poor fit]
CCc1cc2ccc(C)c(C)c2nc1SCC(=O)NNC(=O)c1ccco1 | -5.71 | – | 29.1 µM [rising, single point]

Rewritten as comma-separated lines: entries from further up
Structure (SMILES),cell number change [%],AC50 [1],AC50 [2]
COCCn1c(=O)[nH]c2cc(C(=O)N3CCN(c4ccccc4OC)CC3)ccc2c1=O,-30.6,"1.64 µM [falling, full curve, poor fit]","9.2 µM [falling, partial curve, poor fit]"
CN(CC(=O)Nc1ccccc1Cl)C(=O)COC(=O)c1cc(S(=O)(=O)N(C)C)ccc1N1CCCC1,75,"0.517 µM [rising, full curve]",–
CN1CCS/C1=C/C=C1/SC(=S)N(Cc2ccccc2)C1=O,-17,–,"29.1 µM [falling, partial curve, poor fit]"
